We go through three molecules from paper PMC13261057.

The chains behind the UniProt entries cited, without tags or fusion partners.
UniProt Q9BQQ3: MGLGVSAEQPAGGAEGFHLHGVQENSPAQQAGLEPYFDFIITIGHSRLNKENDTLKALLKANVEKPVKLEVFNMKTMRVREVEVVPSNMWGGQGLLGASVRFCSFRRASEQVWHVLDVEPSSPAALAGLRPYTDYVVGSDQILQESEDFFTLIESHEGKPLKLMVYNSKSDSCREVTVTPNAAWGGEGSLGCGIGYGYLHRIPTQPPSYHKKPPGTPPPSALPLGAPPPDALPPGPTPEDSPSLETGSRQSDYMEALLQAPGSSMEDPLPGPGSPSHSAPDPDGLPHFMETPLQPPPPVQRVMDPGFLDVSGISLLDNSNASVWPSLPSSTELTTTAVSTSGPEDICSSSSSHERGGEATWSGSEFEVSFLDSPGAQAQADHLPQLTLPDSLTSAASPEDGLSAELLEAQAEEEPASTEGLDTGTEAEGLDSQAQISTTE
UniProt Q9H4A6: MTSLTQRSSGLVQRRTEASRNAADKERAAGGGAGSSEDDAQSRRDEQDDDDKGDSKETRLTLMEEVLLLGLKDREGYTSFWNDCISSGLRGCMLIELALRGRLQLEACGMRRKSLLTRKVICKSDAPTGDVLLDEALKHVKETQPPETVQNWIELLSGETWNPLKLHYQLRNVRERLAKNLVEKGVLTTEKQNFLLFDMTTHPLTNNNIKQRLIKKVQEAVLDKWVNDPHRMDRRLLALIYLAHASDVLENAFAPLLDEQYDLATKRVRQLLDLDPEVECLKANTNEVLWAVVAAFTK

No constants are given. Whether binding was seen depends on the method and setting. Binding seen in cells or lysates may run through a third protein. Some entries that bind do so weakly or less than the wild type.

B1: LYSET (protein, UniProt Q8N6I4 1-163)
chain: MPKPPDYSELSDSLTLAVGTGRFSGPLHRAWRMMNFRQRMGWIGVGLYLLASAAAFYYVFEISETYNRLALEHIQQHPEEPLEGTTWTHSLKAQLLSLPFWVWTVIFLVPYLQMFLFLYSCTRADPKTVGYCIIPICLAVICNRHQAFVKASNQISRLQLIDT

The assay has as its target GRASP65 (human (endogenous in WI-26)) (UniProt Q9BQQ3). The assay can be described thus: co-IP; WI-26 cells transfected with a GNPTAB-Myc vector, lysed 24 h later in Triton lysis buffer (50 mM Tris-HCl pH 7.5, 1% Triton X-100, 150 mM NaCl); IP with mouse monoclonal anti-GRASP55, anti-GRASP65 or anti-Myc for 3-4 h at 4 °C, protein G agarose overnight, 4 washes; immunoblot (Fig. 7D).
For the molecule GOLPH3 (from UniProt Q9H4A6 1-298), the binding result was “binds”. For “Myc-tagged GNPTAB (GlcNAc-1-phosphotransferase alpha/beta precursor) (from UniProt Q3T906-1 1-1256)”, the binding result was “no binding”. With B1 the entry was “no binding”.
